Test results reported in the supplement of paper PMC12823440, “Inhibitors supercharge kinase turnover through native proteolytic circuits” (Nature, 2025).
Where a name gives a salt, the structure may show the parent alone. Some of the results follow. Hit calls seldom repeat between salt and free forms of one compound.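 In K562 cells expressing nanoluciferase-fused kinases, luminescence was recorded at 4 h intervals between 2 and 18 h, normalized as percent of control with DMSO at 100% and a positive control at 0%. A significant (2 sigma) signal drop marks a time point as decreased. The authors' rule for a hit is not shown and takes in more than the number of time points.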

Protein sequences, listed by entry. Tags and fused reporters are not part of them.
UniProt P07949, whole entry, looked up: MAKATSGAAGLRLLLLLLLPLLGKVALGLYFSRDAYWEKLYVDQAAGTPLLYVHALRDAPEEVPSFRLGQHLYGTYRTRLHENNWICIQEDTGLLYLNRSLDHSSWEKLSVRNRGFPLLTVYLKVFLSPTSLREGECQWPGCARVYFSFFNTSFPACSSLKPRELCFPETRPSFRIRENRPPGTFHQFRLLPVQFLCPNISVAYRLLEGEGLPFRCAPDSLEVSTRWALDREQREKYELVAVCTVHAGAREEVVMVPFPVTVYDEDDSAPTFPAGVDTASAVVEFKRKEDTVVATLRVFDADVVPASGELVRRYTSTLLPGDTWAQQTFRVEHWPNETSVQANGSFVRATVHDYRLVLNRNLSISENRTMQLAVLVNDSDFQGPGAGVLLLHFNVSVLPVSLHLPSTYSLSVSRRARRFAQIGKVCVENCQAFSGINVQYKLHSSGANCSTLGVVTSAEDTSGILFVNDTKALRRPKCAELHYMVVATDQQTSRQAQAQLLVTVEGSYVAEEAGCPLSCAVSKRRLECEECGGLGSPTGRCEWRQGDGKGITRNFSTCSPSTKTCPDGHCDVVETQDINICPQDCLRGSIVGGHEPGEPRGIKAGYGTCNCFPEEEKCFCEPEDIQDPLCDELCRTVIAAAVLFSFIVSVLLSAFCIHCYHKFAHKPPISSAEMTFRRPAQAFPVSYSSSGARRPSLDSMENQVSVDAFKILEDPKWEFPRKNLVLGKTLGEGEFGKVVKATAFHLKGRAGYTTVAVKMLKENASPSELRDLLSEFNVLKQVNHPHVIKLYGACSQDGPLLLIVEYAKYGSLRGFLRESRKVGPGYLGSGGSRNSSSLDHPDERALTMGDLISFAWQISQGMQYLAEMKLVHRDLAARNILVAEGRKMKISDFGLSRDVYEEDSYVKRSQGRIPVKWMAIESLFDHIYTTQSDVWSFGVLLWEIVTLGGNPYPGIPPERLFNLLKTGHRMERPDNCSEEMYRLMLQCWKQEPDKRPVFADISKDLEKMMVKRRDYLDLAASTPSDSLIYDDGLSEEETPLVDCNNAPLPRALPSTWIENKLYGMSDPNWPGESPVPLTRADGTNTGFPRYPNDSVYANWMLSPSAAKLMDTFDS

biological target: RET (UniProt P07949); experiment: number of time points (of 5) at which kinase-Nluc abundance scored as decreased, DMSO-normalised (count); higher = more persistent destabilization; settings: K562; 2-18 h

SMILES	number of time points
C[C@H]1CC[C@]2(NC1)O[C@H]1C[C@H]3[C@@H]4CC[C@H]5C[C@@H](O[C@@H]6O[C@H](CO)[C@H](O[C@@H]7O[C@H](CO)[C@@H](O)[C@H](O[C@@H]8OC[C@@H](O)[C@H](O)[C@H]8O)[C@H]7O[C@@H]7O[C@H](CO)[C@@H](O)[C@H](O)[C@H]7O)[C@H](O)[C@H]6O)CC[C@]5(C)[C@H]4CC[C@]3(C)[C@H]1[C@@H]2C [Tomatine] (2.5 µM)	5
CCCCNc1nc(N)c2[nH]c(=O)n(Cc3ccc(C)nc3)c2n1 (10 µM)	0
C[C@H](CCC(=O)O)C[C@H](C)C[C@H](C)C(=O)/C=C(\O)[C@H](C)C[C@H](C)C/C=C/[C@@H](C)[C@@H](O)[C@@H](C)[C@@H](O)C[C@@H]1CC[C@@](C)([C@H]2CC[C@@](C)([C@@H](C)O)O2)O1 [Ionomycin (calcium)] (2.5 µM)	0
CCOC(=O)c1c(/C(C#N)=C\N)c2ccc(Cl)c(Cl)c2n1C (10 µM)	0
CC(=O)OC(C)(C)/C=C/C(=O)[C@](C)(O)[C@H]1[C@H](O)C[C@@]2(C)[C@@H]3CC=C4[C@@H](C=C(O)C(=O)C4(C)C)[C@]3(C)C(=O)C[C@]12C [Cucurbitacin E] (2.5 µM)	4
O=C1C=CC[C@@H]2[C@H]3CCCN4CCC[C@@H](CN12)[C@@H]34 [Sophocarpine (monohydrate)] (2.5 µM)	0
C=CC(=O)Nc1ccc2[nH]c(=O)n(C3CCN(Cc4ccc(-c5nc6cc[nH]c(=O)c6cc5-c5ccccc5)cc4)CC3)c2c1 [Borussertib] (10 µM)	0
O=C1C=CC[C@@H]2[C@H]3CCCN4CCC[C@@H](CN12)[C@@H]34 [Sophocarpine] (10 µM)	0
C=CC(=O)N[C@H]1C=C(C)c2c(-c3cnc4ccccc4c3)c3c(N)ncnc3n2C1 (10 µM)	0
Cn1cc(C2=C(c3cn(C4CCN(Cc5ccccn5)CC4)c4ccccc34)C(=O)NC2=O)c2ccccc21 [Enzastaurin] (10 µM)	0
CCN1CCN(C(=O)Cc2ccc(Nc3ncc(F)c(Nc4ccc(C(=O)Nc5ccccc5Cl)cc4)n3)cc2)CC1 (2.5 µM)	0
C[C@H]1CC[C@]2(NC1)O[C@H]1C[C@H]3[C@@H]4CC[C@H]5C[C@@H](O)CC[C@]5(C)[C@H]4CC[C@]3(C)[C@H]1[C@@H]2C [Tomatidine (hydrochloride)] (10 µM)	0
O=[N+]([O-])/C=C/c1ccc2c(c1)OCO2 (2.5 µM)	0
NCCc1cn(S(=O)(=O)c2c(Cl)nc3sccn23)c2ccccc12 (10 µM)	0
COc1ccc(N(C(=O)Oc2c(C)cccc2C)c2ccnc(Nc3ccc(N4CCN(C)CC4)cc3)n2)c(OC)c1 (2.5 µM)	0
Cc1ccccc1-n1c(Cn2cnc3c(N)ncnc32)nc2cccc(C)c2c1=O (10 µM)	0
Cc1[nH]ncc1-c1cc2nc([C@H]3CC4CCN3CC4)[nH]c(=O)c2s1 [(R)-Simurosertib] (10 µM)	0
CC1C(=O)OC2C(O)C34C5OC(=O)C3(OC3OC(=O)C(O)C34C(C(C)(C)C)C5O)C12O (stereo not drawn) [Ginkgolide C] (10 µM)	0
O=C(/C=C/c1ccccc1)OC[C@H]1O[C@@H](O[C@@H]2OC=C[C@H]3[C@H](O)[C@@H]4O[C@]4(CO)[C@@H]23)[C@H](O)[C@@H](O)[C@@H]1O [Picroside I] (10 µM)	0
CC1=C[C@]23C(=O)[C@@H](C=C(CO)[C@@H](O)[C@]2(O)[C@H]1O)[C@H]1[C@@H](C[C@H]3C)C1(C)C [Ingenol] (10 µM)	0
O=Cc1cn(Cc2ccc(Cl)cc2)c2ccccc12 [Oncrasin-1] (10 µM)	0
C[C@@H]1CC[C@H]2[C@@H](C)C(=O)O[C@@H]3O[C@@]4(C)CC[C@@H]1[C@]32OO4 [Artemisinin] (10 µM)	0
C[C@H](Nc1ncnc2[nH]cnc12)c1nc2ccc(F)cc2c(=O)n1-c1ccccc1 [Acalisib] (10 µM)	0
O=C1c2ccccc2C(=O)c2c1cccc2-c1cnn(C2CCNCC2)c1 [PDK4-IN-1 (hydrochloride)] (10 µM)	0
Cc1ccccc1-n1c(Cn2ncc3c(N)ncnc32)nc2cccc(C)c2c1=O (10 µM)	0
Nc1ncnc2c1ncn2[C@@H]1O[C@@H]2COP(O)(=S)O[C@H]2[C@H]1O (stereo partly drawn) [Sp-cAMPS (sodium salt)] (10 µM)	0
CN(C)C(=O)c1ccc(Cn2c(C(=O)O)cc3c(Br)cc(Sc4ccc(Cl)c(Cl)c4)cc32)cc1 [Rheb inhibitor NR1] (10 µM)	0
C/C=C(/C)C(=O)O[C@H]1[C@@H]2[C@H](C)C(=O)O[C@@H]2C[C@@H](C)[C@@H]2C=CC(=O)[C@]21C [Brevilin A] (2.5 µM)	0
